Laboratory results as given in patent US7662778B2 (Riken, priority 2003, dated 2010).

assay: general procedure: solution-phase peptide synthesis; HBTU/HOBt.H2O/Et3N for fragment coupling; HATU/DIEA for cyclisation; conditions: coupling step

| Substance | step yield [%] |
| --- | --- |
| Boc-D-Tyr(Me)-L-Ile-D-Pro-L-Ab6-OBzl | 89 |
| Boc-D-Tyr(Me)-L-Ile-D-Pro-L-Hly(For, OBzl)-OTmse | 83 |
| Boc-D-Tyr(Me)-L-Ile-L-Pro-L-Hly(For, OBzl)-OTmse | 69 |
| Boc-L-Aph-D-Tyr(Me)-L-Ile-D-Pro-OBzl | 35 |

same assay, conditions: cyclisation step

| Substance | cyclisation yield [%] |
| --- | --- |
| cyclo(-L-Ab6-D-Tyr(Me)-L-Ile-D-Pro-) | 32 |
| cyclo(-L-Aph-D-Tyr(Me)-L-Ile-D-Pro-) | 11 |
| cyclo(-L-Hly(For, OBzl)-D-Tyr(Me)-L-Ile-D-Pip-) | 28 |
| cyclo(-L-Hly(For, OBzl)-D-Tyr(Me)-L-Ile-D-Pro-) | 66 |
| cyclo(-L-Hly(For, OBzl)-D-Tyr(Me)-L-Ile-L-Pip-) | 28 |
| cyclo(-L-Hly(For, OBzl)-D-Tyr(Me)-L-Ile-L-Pro-) | 44 |
| cyclo(-L-Lys(For, OBzl)-D-Tyr(Me)-L-Ile-D-Pip-) | 25 |
| cyclo(-L-Lys(For, OBzl)-D-Tyr(Me)-L-Ile-L-Pip-) | 24 |

same assay, conditions: late stage modification step

| Substance | step yield [%] |
| --- | --- |
| Boc-D-Tyr(Me)-L-Ile-D-Pro-L-Ab6-OH | 96 |
| Boc-L-Aph-D-Tyr(Me)-L-Ile-D-Pro-OH | 92 |
| SS-dimer of cyclo(L-Asu(OATP)-D-Tyr(Me)-L-Ile-D-Pro) | 80 |
| TFA.H-D-Tyr(Me)-L-Ile-D-Pro-L-Hly(For, OBzl)-OH | 93 |
| TFA.H-D-Tyr(Me)-L-Ile-L-Pro-L-Hly(For, OBzl)-OH | 100 |
| cyclo(-L-A2oc(For, OH)-D-Tyr(Me)-L-Ile-D-Pip-) | 15 |
| cyclo(-L-A2oc(For, OH)-D-Tyr(Me)-L-Ile-L-Pip-) | 25 |
| cyclo(-L-Am6(Ac)-D-Tyr(Me)-L-Ile-D-Pro-) | >100 |
| cyclo(-L-Am6(Tfacet)-D-Tyr(Me)-L-Ile-D-Pro-) | 12 |
| cyclo(-L-Asu(OMe)-D-Tyr(Me)-L-Ile-D-Pro-) | 76 |
| cyclo(-L-Asu(O—.Li^+)-D-Tyr(Me)-L-Ile-D-Pro-) | 100 |
| cyclo(-L-Hly(For, OH)-D-Tyr(Me)-L-Ile-D-Pip-) | 73 |
| cyclo(-L-Hly(For, OH)-D-Tyr(Me)-L-Ile-D-Pro-) | 70 |
| cyclo(-L-Hly(For, OH)-D-Tyr(Me)-L-Ile-L-Pip-) | 91 |
| cyclo(-L-Hly(For, OH)-D-Tyr(Me)-L-Ile-L-Pro-) | 50 |
| cyclo(-L-Lys(For, OH)-D-Tyr(Me)-L-Ile-D-Pip-) | 93 |
| cyclo(-L-Lys(For, OH)-D-Tyr(Me)-L-Ile-L-Pip-) | 100 |
| cyclo(-L-Pfe-D-Tyr(Me)-L-Ile-D-Pro-) | 5 |
| cyclo(-L-Tfm-D-Tyr(Me)-L-Ile-D-Pro-) | 40 |
| cyclo(L-Asu(OAPNH)-D-Tyr(Me)-L-Ile-D-Pro) | 30 |
| cyclo(L-Asu(OAPOH)-D-Tyr(Me)-L-Ile-D-Pro) | 40 |
| cyclo(L-Asu(OPD)-D-Tyr(Me)-L-Ile-D-Pro) | 80 |
| cyclo(L-Asu-D-Tyr(Me)-L-Ile-D-Pro) | 100 |
